{"source": "PubChem BioAssay AID1259424 (University of Nebraska Medical Center, 2018)", "test": "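Find knockdowns that reproduce the expression shifts seen after KSR1 loss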 (primary screen)", "cell system": "human HCT116 colon cancer cells", "reagent": "siRNA pool against human genes, 50 nM", "measured": "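Six signature mRNAs by branched-DNA multiplex assay, scaled to two housekeeping genes and non-targeting median, log2; matched to mean KSR1 knockdown profile by Pearson correlation and euclidean distance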", "scale": "mean correlation with KSR1 profile: higher = expression change more like KSR1 knockdown; mean distance from KSR1 profile: higher = expression change less like KSR1 knockdown", "note": "Shown is an unselected part of about 14,000 reagents tested. 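Higher correlation or smaller distance means closer resemblance to KSR1 loss; control wells, including KSR1 knockdowns, recur on many plates.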 Further read-outs or replicates are left out here. Not given: the time to read-out."}
{"gene": "POLI (DNA polymerase iota)", "mean correlation with KSR1 profile": 0.206, "mean distance from KSR1 profile": 1}
{"gene": "AKR1B10 (aldo-keto reductase family 1 member B10)", "mean correlation with KSR1 profile": 0.246, "mean distance from KSR1 profile": 2.32}
{"gene": "ITGAD (integrin subunit alpha D)", "mean correlation with KSR1 profile": -0.0788, "mean distance from KSR1 profile": 3.57}
{"gene": "N4BP2 (NEDD4 binding protein 2)", "mean correlation with KSR1 profile": 0.561, "mean distance from KSR1 profile": 0.873}
{"gene": "UCHL5 (ubiquitin C-terminal hydrolase L5)", "mean correlation with KSR1 profile": -0.295, "mean distance from KSR1 profile": 1.36}
{"gene": "CYP7B1 (cytochrome P450 family 7 subfamily B member 1)", "mean correlation with KSR1 profile": 0.664, "mean distance from KSR1 profile": 1.09}
{"gene": "KNTC1 (kinetochore associated 1)", "mean correlation with KSR1 profile": -0.217, "mean distance from KSR1 profile": 1.67}
{"gene": "MPL (MPL proto-oncogene, thrombopoietin receptor)", "mean correlation with KSR1 profile": -0.617, "mean distance from KSR1 profile": 2.61}
{"gene": "CORO7 (coronin 7)", "mean correlation with KSR1 profile": 0.635, "mean distance from KSR1 profile": 2.49}
{"gene": "TDP1 (tyrosyl-DNA phosphodiesterase 1)", "mean correlation with KSR1 profile": -0.482, "mean distance from KSR1 profile": 2.98}
{"gene": "COMMD2 (COMM domain containing 2)", "mean correlation with KSR1 profile": 0.213, "mean distance from KSR1 profile": 1.1}
{"gene": "ABL2 (ABL proto-oncogene 2, non-receptor tyrosine kinase)", "mean correlation with KSR1 profile": 0.723, "mean distance from KSR1 profile": 1.81}

2 neighbouring entries already listed, for reference:
{"gene": "UCHL5 (ubiquitin C-terminal hydrolase L5)", "mean correlation with KSR1 profile": -0.295, "mean distance from KSR1 profile": 1.36}
{"gene": "CYP7B1 (cytochrome P450 family 7 subfamily B member 1)", "mean correlation with KSR1 profile": 0.664, "mean distance from KSR1 profile": 1.09}
